Test results from article PMC4844422, “Activity Regulation by Heteromerization of Arabidopsis Allene Oxide Cyclase Family Members” (Plants, 2016).
Positions count from the first letter of the chain named. No constants are given. Whether binding was seen depends on the method and setting. Some binding calls cover weakened binding; strength is not graded here.

By UniProt entry, the sequences of proteins in these tests, tags left out. Residues count along the entry.
UniProt Q9LS02, residues 78-253: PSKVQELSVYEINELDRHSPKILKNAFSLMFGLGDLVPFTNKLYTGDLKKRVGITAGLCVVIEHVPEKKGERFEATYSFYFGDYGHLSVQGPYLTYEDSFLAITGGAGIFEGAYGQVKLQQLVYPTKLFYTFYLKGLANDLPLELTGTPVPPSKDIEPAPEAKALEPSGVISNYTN

T1: Arabidopsis allene oxide cyclase 4 (AOC4), as co-expressed in heteromers (Arabidopsis thaliana) (UniProt Q93ZC5)
T1 sequence: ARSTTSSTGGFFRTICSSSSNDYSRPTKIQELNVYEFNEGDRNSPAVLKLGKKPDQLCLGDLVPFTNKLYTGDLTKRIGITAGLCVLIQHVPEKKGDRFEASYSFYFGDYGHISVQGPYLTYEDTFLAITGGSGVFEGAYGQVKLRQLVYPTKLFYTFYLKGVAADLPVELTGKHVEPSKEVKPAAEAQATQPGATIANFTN

B1: Arabidopsis allene oxide cyclase 1 (AOC1), as co-expressed in heteromers (enzyme, UniProt Q9LS03 79-254)
chain: PSKVQELSVYEINDLDRHSPKILKNAFSFRFGLGDLVPFTNKLYTGDLKKRVGITAGLCVVIEHVPEKNGDRFEATYSFYFGDYGHLSVQGPYLTYEDSFLAITGGAGIFEGAYGQVKLQQLVYPTKLFYTFYLKGLANDLPLELIGTPVPPSKDVEPAPEAKALKPSGVVSNFTN
B2: Arabidopsis allene oxide cyclase 2 (AOC2), as co-expressed in heteromers (enzyme, UniProt Q9LS02 78-253)
chain: B1 chain with D14E, F29L, R30M, N69K, D71E, I146T, V156I, K166E, V171I, F174Y

Molecular target: T1, Arabidopsis allene oxide cyclase 4 (AOC4), as co-expressed in heteromers (Arabidopsis thaliana)
Assay: sequential affinity co-purification (Ni-NTA, then StrepTactin); two AOCs co-expressed in E. coli from one vector, one His-tagged and one Strep-tag-II-tagged; eluate of Ni-NTA-agarose put on StrepTrap HP; immunoblots with anti-His-tag antibody and StrepTactin-HRP after SDS at 96 °C

Row | Binder | binding
1 | B1 | binds
2 | B2 | binds
